Test results from PMC7497283.
These are yes or no findings as the source states them, for the method shown. Binding seen in cells or lysates may run through a third protein. Some binding calls cover weakened binding; strength is not graded here.

Sequences of proteins named here, by UniProt entry; tags and fusion partners are left off.
UniProt Q9BR76: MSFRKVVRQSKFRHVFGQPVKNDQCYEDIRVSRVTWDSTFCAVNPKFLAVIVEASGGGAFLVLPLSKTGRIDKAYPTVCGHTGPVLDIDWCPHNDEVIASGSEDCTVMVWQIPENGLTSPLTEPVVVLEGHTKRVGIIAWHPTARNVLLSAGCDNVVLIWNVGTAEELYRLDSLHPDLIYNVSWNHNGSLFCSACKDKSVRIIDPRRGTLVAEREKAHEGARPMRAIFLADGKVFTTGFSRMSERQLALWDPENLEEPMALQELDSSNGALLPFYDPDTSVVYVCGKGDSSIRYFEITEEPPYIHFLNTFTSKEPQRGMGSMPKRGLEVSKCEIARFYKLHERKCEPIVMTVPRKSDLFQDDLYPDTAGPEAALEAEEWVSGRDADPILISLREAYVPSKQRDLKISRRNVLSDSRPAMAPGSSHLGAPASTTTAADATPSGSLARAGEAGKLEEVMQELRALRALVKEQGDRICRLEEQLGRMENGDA
UniProt P31146: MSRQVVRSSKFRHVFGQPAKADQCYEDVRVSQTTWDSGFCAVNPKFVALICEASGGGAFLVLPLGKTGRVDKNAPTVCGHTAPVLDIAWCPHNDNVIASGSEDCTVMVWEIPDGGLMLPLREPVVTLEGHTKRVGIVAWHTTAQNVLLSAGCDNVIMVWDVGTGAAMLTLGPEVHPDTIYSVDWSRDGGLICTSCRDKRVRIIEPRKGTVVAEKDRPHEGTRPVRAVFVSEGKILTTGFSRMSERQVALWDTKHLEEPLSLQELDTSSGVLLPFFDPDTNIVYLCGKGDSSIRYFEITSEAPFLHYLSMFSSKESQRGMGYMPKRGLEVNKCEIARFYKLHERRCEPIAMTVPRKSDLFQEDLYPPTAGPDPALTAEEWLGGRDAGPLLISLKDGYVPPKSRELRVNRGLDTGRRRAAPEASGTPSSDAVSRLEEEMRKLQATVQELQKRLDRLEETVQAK
UniProt Q9ULV4: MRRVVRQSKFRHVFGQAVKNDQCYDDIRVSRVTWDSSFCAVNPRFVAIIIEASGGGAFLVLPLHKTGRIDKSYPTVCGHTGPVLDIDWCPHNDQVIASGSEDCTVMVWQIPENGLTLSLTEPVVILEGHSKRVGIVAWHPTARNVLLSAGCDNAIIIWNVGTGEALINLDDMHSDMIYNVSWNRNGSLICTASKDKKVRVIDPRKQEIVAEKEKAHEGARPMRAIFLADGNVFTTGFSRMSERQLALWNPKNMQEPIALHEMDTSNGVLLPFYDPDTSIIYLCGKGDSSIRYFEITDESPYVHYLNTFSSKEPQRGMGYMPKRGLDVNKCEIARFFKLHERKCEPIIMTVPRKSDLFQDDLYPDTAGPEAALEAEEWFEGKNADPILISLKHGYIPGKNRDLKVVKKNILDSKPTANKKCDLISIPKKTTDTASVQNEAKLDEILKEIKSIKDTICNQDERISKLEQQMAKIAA
UniProt P63092: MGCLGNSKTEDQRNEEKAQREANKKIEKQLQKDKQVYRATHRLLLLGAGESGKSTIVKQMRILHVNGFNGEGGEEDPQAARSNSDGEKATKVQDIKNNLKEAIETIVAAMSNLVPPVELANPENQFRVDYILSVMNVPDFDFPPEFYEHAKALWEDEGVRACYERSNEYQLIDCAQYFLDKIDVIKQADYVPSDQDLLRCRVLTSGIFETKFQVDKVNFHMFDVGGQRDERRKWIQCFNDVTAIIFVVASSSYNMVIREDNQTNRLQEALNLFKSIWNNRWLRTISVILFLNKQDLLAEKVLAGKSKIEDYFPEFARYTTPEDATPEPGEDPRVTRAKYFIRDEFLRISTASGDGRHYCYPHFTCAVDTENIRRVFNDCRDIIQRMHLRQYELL

Assays:
[1] = target: Coro2 (human (endogenous in platelets)) (UniProt Q9BR76); assay: co-IP; human platelet lysates (2% n-dodecyl β-D-maltoside lysis buffer, 20 mM HEPES, 30 mM NaCl, pH 7.4) incubated overnight at 4°C with 1 μg Coro1- or Coro2-specific antibody or same species control IgG, protein G Sepharose, washes with TBS-T, Western blot
[2] = target: Coro1 (human (endogenous in platelets)) (UniProt P31146); assay: as above

binding [1] | binding [2] | Substance
binds |  | Coro3 (from UniProt Q9ULV4 1-474)
binds | binds | Gαs subunit of heterotrimeric G proteins (from UniProt P63092 1-394)
